# Measurements as given in PubChem BioAssay AID493014 (National Center for Advancing Translational Sciences (NCATS), 2011).
# Among all 340,000 compounds or so, about 170 (0.05%) were called active. The inconclusive results got no clear call from the source; some entries with a clear call stand among them for comparison. The call rests on the fitted dose curve; in most records, active means well fitted inhibition curve with a large enough effect in the signal ratio, with a control signal flat (not every such curve was filed as active); inconclusive means small, poorly fitted or top-dose-only effect, or effect the other way, or a change in a side signal; inactive means flat fitted curve, though single readings scatter; the % refers to the signal ratio. Where the call is inconclusive, the potency comes from a doubtful curve fit.
# Assay: qHTS Assay to Find Inhibitors of Chronic Active B-Cell Receptor Signaling;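 on activity change, negative = inhibition: plate controls were basal doxycycline-induced cells for no effect and cells given 10 µM MG132 for full effect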
# Details: ABC-DLBCL IkBa-CBG/CBR reporter, luminescence ratio (green luciferase fused to IkBa over red control in TMD8 lymphoma cells), 4 h; activity change, negative = inhibition: at 46.1 µM (top of the series) unless noted
# Outline: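 Concentration-response series (up to 46 uM) were applied to TMD8 dual-reporter cells for 4 h at 37C with doxycycline. Green/red ratio, after filter-overlap correction, defined %Activity; red signal alone was normalised to basal cells and zero luminescence.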
# Potency means the concentration at half of the fitted maximal effect.
SMILES,"activity change, negative = inhibition",Potency
CC(NC(=O)COC(=O)C1CCCCC1)c1ccccc1 (configuration not stated),inactive: 1.33%,–
CC(C)Sc1nc(N)c2c3c(sc2n1)CN(C)CC3,inactive: -0.114%,–
COc1cccc(C2C(=O)N(C3CCCCC3)CC(=O)N2CCc2ccc(OC)c(OC)c2)c1 (configuration not stated),inactive: -0.197%,–
Cc1ccc(S(=O)(=O)NCC(C)n2cncn2)cc1C (configuration not stated),inactive: 11.7%,–
COC(=O)c1ccc(COC(=O)CNC(=O)CNC(=O)c2ccc(C)cc2)cc1,inconclusive: 7.46%,–
COc1ccc(CN(C(=O)c2cc3ccccc3oc2=O)C2CCCCC2)cc1OC,inconclusive: -4.4%,–
COc1cc(/C=N/O)cc(Cl)c1OC,inconclusive: -1.31%,–
CCc1ccc(N=Nc2ccc(O)c3[nH]cnc23)cc1,inconclusive: -7.25%,–
O=C(COC(=O)c1ccc(O)cc1O)Nc1cccc2ccccc12,–,"inconclusive: 5.8 µM [falling, partial curve, poor fit]"
COc1ccc(/C=C\C(=O)c2c(O)ccc3c(C)cc(=O)oc23)cc1,–,"inconclusive: 20.6 µM [falling, single point]"
COc1ccc(-c2nc3scc(CCNS(=O)(=O)c4cccs4)n3n2)cc1,inconclusive: -2.3%,–
CN1CCN(C(=O)c2cc(COc3c(F)cccc3F)on2)CC1c1ccccc1 (configuration not stated),inconclusive: 28.1%,–
Cc1ccccc1C(=O)Nc1nc(-c2cccnc2)cs1,–,"inconclusive: 5.01 µM [falling, partial curve, poor fit]"
CO/N=C/c1ccc(N2CCN(C(=O)c3cccc(C(F)(F)F)c3)CC2)c([N+](=O)[O-])c1,inconclusive: -20.3%,–
CCn1ncc(C2=NOC(C(=O)NCc3ccc(Cl)cc3)C2)c1C (configuration not stated),–,"inconclusive: 7.94 µM [falling, partial curve]"
Cc1cc(SCC(=O)N/N=C/c2ccc(C(=O)O)cc2)nc2ccccc12,inconclusive: -7.53%,–
CCOc1ccc(CN2C(=O)c3ccccc3C2=O)cc1C(=O)N1CCC(C(N)=O)CC1,inactive: 1.18%,–
Cc1ccccc1OCC(=O)Nc1ccc2c(c1)n(C)c(=O)n2C,–,"inconclusive: 35.5 µM [falling, partial curve, poor fit]"
COc1ccc(-c2nc(-c3ccccc3OC)no2)cc1OC,–,"inconclusive: 5.01 µM [falling, single point]"
CC(=O)NC(=S)Nc1ccccc1N1CCN(C(=O)c2ccccc2)CC1,inactive: -8.21%,–
CCOC(=O)/C(=N/Nc1ccc(C)cc1)S(=O)(=O)c1ccc(Cl)cc1,inconclusive: -23.3%,–
COC(=O)c1ccc(/C(O)=C(\C#N)c2nc3ccccc3s2)cc1,–,"inconclusive: 10 µM [rising, partial curve]"

# A different layout for part of the listing above:
SMILES | activity change, negative = inhibition | Potency
CC(=O)NC(=S)Nc1ccccc1N1CCN(C(=O)c2ccccc2)CC1 | inactive: -8.21% | –
CCOC(=O)/C(=N/Nc1ccc(C)cc1)S(=O)(=O)c1ccc(Cl)cc1 | inconclusive: -23.3% | –
